## Library screening results

From ChEMBL document CHEMBL3988442, “University of Dundee, Small-Polar-MMV Screening Library” (2021).

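Viability assay of Plasmodium falciparum sporozoites; the read-out is not stated. The concentration is filed as 10 mM, unlikely as a test dose, so the dose is not known. The record gives no direction; compounds that gave an IC50 in retests scored well above the rest, so higher reads as lower viability. Strong results were mostly tested again. Of about 34,000 compounds tested this way, about 280 (0.84%) reached 50% or more in at least one test.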

Results are given as percent effect. The record does not define 0% and 100%; most values in the screen are far below 50% and negative numbers occur (in some assays of this library far below -100). This is an unselected part of the compounds tested. Two or more numbers in one place are separate tests of the same structure; such repeats can differ widely.

SMILES,Percent Effect
Cc1ccc(-c2nc(C3CCN(C(=O)c4ccn(C)n4)CC3)no2)cn1,14.01
Br.O=C(CN(C1=NCCCC1)c1ccccc1)c1ccc(OC(F)F)cc1,-9.9
CC(c1cccc(Cl)c1)N(C)Cc1nc2c(cnn2C)c(=O)[nH]1 (stereo not shown),-9.562
COCCCN1CCCN(C(C)C(=O)Nc2cccc(I)c2)CC1 (stereo not shown),-7.215
CCc1cc(NCc2ccccc2CN2CCCC2)n2ncnc2n1,-0.3382
COCc1ccccc1NC(=O)[C@@H]1CCCN1C(=O)c1ccco1,-8.959
CCc1csc(C2CCCN(C(=O)c3cnc[nH]3)C2)n1 (stereo not shown),4.489
COCCc1noc(CN2CC(n3nc(C)cc3C)C2)n1,-0.135
Cn1cc(C(=O)CC2CCCN2C(=O)c2cccc3ncccc23)cn1 (stereo not shown),7.293
Cn1ccnc1CNCC1CCCN1c1cccnn1 (stereo not shown),12.1
COCCCNC(=O)C(C)n1nc(-c2ccco2)cc(N)c1=O (stereo not shown),23.4
NS(=O)(=O)CCNC(=O)c1ccc(-c2ccc(F)cc2)cc1F,-13.09
COCCn1c2c(ccc1=O)CC(NCc1cccnc1OC)CC2.O=C(O)C(F)(F)F.O=C(O)C(F)(F)F (stereo not shown),3.038
COc1cc(C(=O)NS(=O)(=O)c2cc(Cl)sc2Cl)ccc1OC(F)F,-20.83
CN(C)C1(CNC(=O)C/C=C/c2ccc(F)cc2)CCOCC1,-3.2
CCC(=O)N1CCC(NC(=O)c2cccc(-n3ccnc3)c2)C1 (stereo not shown),-5.085
O=C(c1cn(-c2cc(N3CCOCC3)ncn2)cn1)N1CCSCC1,-3.424
CN1C(=O)C2(CCN(CCO)C2)c2ccccc21 (stereo not shown),2.971
Cc1ccsc1C(=O)NCc1ccnc(C2CCCOC2)n1 (stereo not shown),2.695
NC(=O)C1CCN(c2ccc3cc(Br)ccc3n2)C1 (stereo not shown),-42.56 & -39.12
Cc1nc2ccccc2nc1CN(C)CC1CCCN1c1cccnn1 (stereo not shown),-5.318 & 12.5 & 17.84
CCN(Cc1cccc(NC(=O)COCCOC)c1)C(C)=O,3.73
CCOc1ccc(Cl)cc1CNCCCn1ccnc1,4.605
O=C(NCC1(O)COCCN(Cc2cccc(O)c2)C1)c1cnccn1 (stereo not shown),-2.046
COc1cc(/C=C/c2ncc(C(=O)O)s2)cc(Cl)c1O,-6.683
O=C(O)C(F)(F)F.O=C(O)C(F)(F)F.[H][C@]12CO[C@H](CN(C)Cc3ccco3)[C@@]1([H])CCN(c1ncc(F)cn1)C2,2.654
CCc1nnsc1C(=O)NCCCC(CC)(CC)C1OCCO1,7.794
O=C(CN1CCOc2ccc(Cl)cc21)NCCCn1cccn1,-1.088
CCN1CC2(CC1=O)CN(C(=O)NC(C)C)CCN(S(C)(=O)=O)C2 (stereo not shown),6.25
COc1ccc2c3c1CN(C(=O)N(C)C)CC3=CC(C)(C)CO2,-44.14
CC(C)CCn1c(=O)nc2n1C(=O)N(c1ccc(F)cc1)C2,-10.03
Cn1ccnc1CN1CCCN(C(=O)COC2CCCCC2)CC1,7.604
Cc1nc(C)n(CC2CN(c3nnc(C)c(C)c3C#N)CCO2)n1 (stereo not shown),-15.66
CCC1(O)CCCN(c2ncnc3c2c(C)nn3C)C1 (stereo not shown),-18.31
O=C(O)C(F)(F)F.O=C(O)C(F)(F)F.[H][C@@]12CCN(Cc3ccccc3)C[C@]1([H])[C@@H](CNc1ncccn1)OC2,14
O=C(Cc1ccccc1)N1CCCC2(COCCN(CC3CC3)C2)C1.O=C(O)C(F)(F)F (stereo not shown),-5.074
COC(=O)N1CCC2(CC1)CC(c1ccccc1)CN(C)C2 (stereo not shown),-10.25
O=C(O)C(F)(F)F.O=C(O)C(F)(F)F.[H][C@@]12CN(Cc3ccsc3)C[C@]1([H])OCCN2c1ncccn1,16.16
Cc1cc(C)n(CC2CCCN2C(=O)c2cccc(C#N)c2)n1 (stereo not shown),-8.847
CN(C)C(=O)N1Cc2ccccc2C2(CCN(C3CCOCC3)CC2)C1,9.41
O=C(NCCCn1ccnc1)N1CCCC1c1ccsc1 (stereo not shown),13.9
Cc1c(C(=O)NCC(C)C)nnn1-c1cccc2c1CCN(C(C)C)C2,-9.559
CCC(O)CN(CC(=O)NC(=O)NC1CC1)c1ccccc1 (stereo not shown),-8.473
COc1ccc(OC2CCN(C(=O)CCc3n[nH]c(N)n3)CC2)cc1,11.76
Fc1ccc(-c2nc(CN3CCCCC3Cn3cncn3)co2)cc1 (stereo not shown),13.71
CN(Cc1ccc2c(c1)OCO2)C(=O)Cn1cccnc1=O,16.04
CC(C)C(C)NC(=O)Nc1cccc2c1CCN(S(C)(=O)=O)C2 (stereo not shown),-17.65
CC(C)C(=O)N1CCOC2(COCCN(c3ncccn3)C2)C1 (stereo not shown),-1.302
Cc1nc(C)n(CC2CCCCN2Cc2cn3ccccc3n2)n1 (stereo not shown),-2.76
CC(=O)N1N=C(c2ccccc2)OC1C(=O)NCCc1cccc(F)c1 (stereo not shown),6.325
Cc1noc(C)c1C(=O)N1Cc2ncn(C)c2C(COCC2CC2)C1.O=C(O)C(F)(F)F (stereo not shown),-7.531
Cc1cccc(CC2COCCN(Cc3nccn3C)C2)n1 (stereo not shown),6.695
COCCN(CCC#N)S(=O)(=O)c1ccc(F)cc1F,-0.1183
Cc1ccccc1CSc1nc(N)cc(N2CCCC(C(N)=O)C2)n1 (stereo not shown),-0.5917
Cc1cc(NC(=O)CN(C)C2CCCN(c3cccnn3)C2)on1 (stereo not shown),6.872
CCC(C)c1noc(C2CCN(C(=O)c3cccnc3)CC2)n1 (stereo not shown),-10.47
COC(=O)CCSc1nncn1-c1ccc(OC)nc1,-15.2

3 of the entries, repeated:

{"smiles": "COC(=O)CCSc1nncn1-c1ccc(OC)nc1", "Percent Effect": -15.2}
{"smiles": "COCCn1c2c(ccc1=O)CC(NCc1cccnc1OC)CC2.O=C(O)C(F)(F)F.O=C(O)C(F)(F)F", "stereo": "stereo not shown", "Percent Effect": 3.038}
{"smiles": "CCC1(O)CCCN(c2ncnc3c2c(C)nn3C)C1", "stereo": "stereo not shown", "Percent Effect": -18.31}